Earlier results in patent US10865384B2, “2,4,5-tri-substituted azole-based casein kinase 1 inhibitors as inducers for cardiomyogenesis” (AGENCY FOR SCIENCE, TECHNOLOGY AND RESEARCH, priority 2014, dated 2020).

Tested on: PKB phosphorylation
Conditions: cited from earlier work

C[S+]([O-])c1ccc(-c2nc(-c3ccc(F)cc3)c(-c3ccncc3)[nH]2)cc1 (stereo not shown) [SB203580, reference compound]
IC50 (published by companies), PKB phosphorylation: 3000 to 5000 nM (PKB phosphorylation)
